According to PMC3422239:
These are yes or no findings as the source states them, for the method shown. For part of these data: A result given as binding can be weak or reduced; the word gives no strength. Sequences can lack the tags named with a protein.

Tests used:
Assay in all cases: far-Western, overlay or dot blot; GFP-tagged IRS-2 pulled down with GFP-Trap from HEK293 or Flp-In HEK293 lysates, SDS-PAGE, nitrocellulose; membrane incubated overnight at 4°C with 14-3-3ζ-HRP, ECL; cells serum starved, IGF-1, or PI-103, wortmannin or Akti-1/2 before IGF-1; both purified
GFP-IRS2-1-300 (mouse) = molecular target: T1, GFP-IRS2-1-300 (mouse) (UniProt P81122)
T1 sequence: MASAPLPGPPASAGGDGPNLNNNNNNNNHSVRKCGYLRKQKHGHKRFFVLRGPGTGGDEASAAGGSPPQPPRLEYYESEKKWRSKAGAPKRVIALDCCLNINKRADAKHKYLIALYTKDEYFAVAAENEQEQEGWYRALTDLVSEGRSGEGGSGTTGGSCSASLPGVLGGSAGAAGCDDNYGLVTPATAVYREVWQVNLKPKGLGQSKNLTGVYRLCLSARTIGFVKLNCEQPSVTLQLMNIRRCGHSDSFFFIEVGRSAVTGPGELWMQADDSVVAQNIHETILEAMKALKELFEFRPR

GFP-IRS2-S573A (mouse) = molecular target: T2, GFP-IRS2-S573A (mouse) (UniProt P81122)
T2 sequence: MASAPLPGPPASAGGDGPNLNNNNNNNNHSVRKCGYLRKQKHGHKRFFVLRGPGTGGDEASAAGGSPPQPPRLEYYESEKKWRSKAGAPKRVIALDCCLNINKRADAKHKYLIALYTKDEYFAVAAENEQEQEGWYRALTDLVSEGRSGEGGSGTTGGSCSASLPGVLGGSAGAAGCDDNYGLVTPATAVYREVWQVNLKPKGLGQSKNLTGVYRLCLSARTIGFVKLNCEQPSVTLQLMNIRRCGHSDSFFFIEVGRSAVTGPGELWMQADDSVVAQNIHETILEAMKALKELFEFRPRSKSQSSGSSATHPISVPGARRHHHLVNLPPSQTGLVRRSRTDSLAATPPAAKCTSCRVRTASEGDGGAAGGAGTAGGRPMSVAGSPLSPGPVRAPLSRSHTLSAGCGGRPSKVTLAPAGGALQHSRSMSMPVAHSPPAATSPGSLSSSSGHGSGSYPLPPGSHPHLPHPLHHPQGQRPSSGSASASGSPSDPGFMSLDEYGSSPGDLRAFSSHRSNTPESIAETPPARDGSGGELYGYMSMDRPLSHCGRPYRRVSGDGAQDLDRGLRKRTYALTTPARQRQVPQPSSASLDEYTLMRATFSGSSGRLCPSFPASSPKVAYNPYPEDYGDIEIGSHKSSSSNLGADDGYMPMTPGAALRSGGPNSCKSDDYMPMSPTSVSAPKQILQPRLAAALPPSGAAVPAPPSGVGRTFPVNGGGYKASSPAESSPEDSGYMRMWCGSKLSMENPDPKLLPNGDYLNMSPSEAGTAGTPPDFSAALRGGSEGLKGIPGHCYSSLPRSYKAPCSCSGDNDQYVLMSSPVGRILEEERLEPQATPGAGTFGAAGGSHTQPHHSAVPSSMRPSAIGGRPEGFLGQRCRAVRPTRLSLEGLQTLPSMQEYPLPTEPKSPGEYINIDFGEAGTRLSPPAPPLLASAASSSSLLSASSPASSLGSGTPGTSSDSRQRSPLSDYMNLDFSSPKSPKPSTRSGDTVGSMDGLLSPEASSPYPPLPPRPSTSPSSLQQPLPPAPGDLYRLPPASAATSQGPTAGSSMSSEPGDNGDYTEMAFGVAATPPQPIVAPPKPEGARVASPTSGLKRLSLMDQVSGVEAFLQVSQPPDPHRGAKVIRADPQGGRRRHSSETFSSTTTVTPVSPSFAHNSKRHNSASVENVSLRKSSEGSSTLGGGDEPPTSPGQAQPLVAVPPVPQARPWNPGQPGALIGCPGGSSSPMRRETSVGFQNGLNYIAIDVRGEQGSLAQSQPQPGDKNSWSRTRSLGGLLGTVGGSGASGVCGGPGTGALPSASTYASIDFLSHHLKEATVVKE

[1] = molecular target: T3, GFP-IRS2-301-1321 (mouse) (UniProt P81122)
T3 sequence: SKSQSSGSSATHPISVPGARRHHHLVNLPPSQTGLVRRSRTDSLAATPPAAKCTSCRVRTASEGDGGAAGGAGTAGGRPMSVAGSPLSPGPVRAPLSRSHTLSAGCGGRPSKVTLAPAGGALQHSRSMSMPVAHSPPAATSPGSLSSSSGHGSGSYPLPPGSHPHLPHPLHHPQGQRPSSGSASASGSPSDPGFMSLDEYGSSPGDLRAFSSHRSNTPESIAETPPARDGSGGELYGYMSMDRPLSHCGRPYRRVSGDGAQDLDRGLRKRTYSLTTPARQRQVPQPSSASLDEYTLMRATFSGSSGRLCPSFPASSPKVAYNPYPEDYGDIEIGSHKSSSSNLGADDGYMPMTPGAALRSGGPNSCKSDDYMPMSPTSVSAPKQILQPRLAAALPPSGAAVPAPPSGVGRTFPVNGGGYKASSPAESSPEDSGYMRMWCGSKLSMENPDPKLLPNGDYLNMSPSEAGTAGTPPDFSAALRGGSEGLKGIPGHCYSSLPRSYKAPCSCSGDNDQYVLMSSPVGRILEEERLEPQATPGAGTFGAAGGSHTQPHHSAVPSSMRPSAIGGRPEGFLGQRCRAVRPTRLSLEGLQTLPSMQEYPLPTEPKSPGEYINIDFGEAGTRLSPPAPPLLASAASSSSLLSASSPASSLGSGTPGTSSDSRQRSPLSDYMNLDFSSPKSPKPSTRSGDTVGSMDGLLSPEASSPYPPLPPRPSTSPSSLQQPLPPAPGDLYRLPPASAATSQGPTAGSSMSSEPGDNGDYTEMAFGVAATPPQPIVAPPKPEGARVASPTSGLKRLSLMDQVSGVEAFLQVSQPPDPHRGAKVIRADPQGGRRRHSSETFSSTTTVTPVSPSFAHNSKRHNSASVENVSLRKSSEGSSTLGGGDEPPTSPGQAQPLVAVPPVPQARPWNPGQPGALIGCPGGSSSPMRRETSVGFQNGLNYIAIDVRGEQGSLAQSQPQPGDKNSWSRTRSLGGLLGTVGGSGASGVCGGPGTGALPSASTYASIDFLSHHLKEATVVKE

Recombinant human 14-3-3ζ-HRP
binding (GFP-IRS2-1-300 (mouse)): no binding
binding (GFP-IRS2-S573A (mouse)): no binding
binding [1]: binds
